Reference: patent US11135246B2, “Peptides and combination of peptides for use in immunotherapy against leukemias and other cancers” (Immatics Biotechnologies GmbH, priority 2017, dated 2021)

System: HLA molecules of primary tumor samples
Test: Identification of tumor associated peptides presented on the cell surface (HLA immune precipitation, LC-MS)
Set-up: species or system human
Settings: for Peptide Presentation on cancer entities: entities on which the peptide was presented, CLL = chronic lymphocytic leukemia, AML = acute myeloid leukemia, CML = Chronic myeloid leukemia; for Peptide Presentation on tumor types: tumor entities on which the peptide was found presented (Table 8b)

Substance | Peptide Presentation on cancer entities | Peptide Presentation on tumor types
240 (SPSLPNITL; listed as Homo sapiens) [compound 240] | CLL | BRCA, CCC, CRC, GBC, GBM, GC, HCC, HNSCC, MEL, NHL, NSCLCadeno, NSCLCother, NSCLCsquam, OC, OSCAR, PACA, PRCA, RCC, SCLC, UBC, UEC
137 (GELGGSVTI; listed as Homo sapiens) [compound 137] | CLL | 
130 (EEEHGKGREY; listed as Homo sapiens) [compound 130] | CLL | 
101 (NPRYPNYMF; listed as Homo sapiens) [compound 101] | CLL | NHL
134 (SEYADTHYF; listed as Homo sapiens) [compound 134] | CLL | NHL
69 (EYNTIKDKF; listed as Homo sapiens) [compound 69] | CLL | GBC, GC, HCC, MEL, NHL, NSCLCadeno, NSCLCother, NSCLCsquam, OSCAR, PACA, SCLC, UEC
258 (EELFRDGVNW; listed as Homo sapiens) [compound 258] | CLL | CCC, CRC, HCC, MEL, NHL, NSCLCadeno, NSCLCsquam, PACA, PRCA, UEC
42 (SVSSSTHFTR; listed as Homo sapiens) [compound 42] | CLL | GC, HNSCC, NHL, NSCLCadeno, NSCLCsquam, UEC
51 (ASTTVLALK; listed as Homo sapiens) [compound 51] | CLL | NHL
90 (KPKAAKPKA; listed as Homo sapiens) [compound 90] | CLL | 
33 (SVFEGDSIVLK; listed as Homo sapiens) [compound 33] | CLL | NHL, NSCLCadeno, NSCLCother, OC
4 (ALDQNKMHY; listed as Homo sapiens) [compound 4] | AML | 
94 (KPKAAKPKKAAA; listed as Homo sapiens) [compound 94] | CLL | 
13 (ITDIHIKY; listed as Homo sapiens) [compound 13] | CLL | BRCA, CRC, GBC, GBM, GC, GEJC, HNSCC, MEL, NHL, NSCLCadeno, NSCLCother, NSCLCsquam, OSCAR, PACA, PRCA, RCC, SCLC, UBC
70 (LYSDIGHLL; listed as Homo sapiens) [compound 70] | CLL | CRC, GBC, GBM, GC, HCC, HNSCC, MEL, NHL, NSCLCadeno, NSCLCother, NSCLCsquam, OSCAR, PRCA, RCC, UBC, UEC
63 (IYFSNTHFF; listed as Homo sapiens) [compound 63] | AML | 
120 (VPPKKHLL; listed as Homo sapiens) [compound 120] | CLL | 
273 (AEIEIVKEEF; listed as Homo sapiens) [compound 273] | CLL | BRCA, CCC, CRC, GBC, GBM, GC, HCC, HNSCC, MEL, NHL, NSCLCadeno, NSCLCsquam, OC, OSCAR, PACA, PRCA, RCC, SCLC, UBC, UEC
55 (IFVARLYYF; listed as Homo sapiens) [compound 55] | CLL | BRCA, CRC, GBC, GC, HCC, MEL, NHL, NSCLCadeno, NSCLCother, NSCLCsquam, OC, OSCAR, PACA, PRCA, RCC, SCLC, UBC, UEC

Substance | Peptide Presentation on cancer entities | Peptide Presentation on tumor types
114 (HNALRILTF; listed as Homo sapiens) [compound 114] | AML | BRCA, NHL, NSCLCother, NSCLCsquam
82 (APFGFLGMQSL; listed as Homo sapiens) [compound 82] | CLL | 
167 (KEIGAAVQAL; listed as Homo sapiens) [compound 167] | CLL | NSCLCadeno, NSCLCother, OC
271 (AESEDLAVHLY; listed as Homo sapiens) [compound 271] | CLL | CRC, HCC, HNSCC, MEL, NHL, NSCLCadeno, NSCLCsquam, OSCAR, PACA
21 (FLFDKLLLI; listed as Homo sapiens) [compound 21] | CLL | BRCA, CCC, CRC, GBC, GBM, GC, GEJC, HCC, HNSCC, MEL, NHL, NSCLCadeno, NSCLCother, NSCLCsquam, OC, OSCAR, PACA, PRCA, RCC, SCLC, UBC, UEC
102 (LPLSMEAKI; listed as Homo sapiens) [compound 102] | CML | 
253 (RPFADLLGTAF; listed as Homo sapiens) [compound 253] | CLL | BRCA, GBC, GC, HCC, HNSCC, MEL, NHL, NSCLCadeno, NSCLCsquam, OC, OSCAR, PACA, SCLC, UBC, UEC
276 (EEEGNLLRSW; listed as Homo sapiens) [compound 276] | CLL | BRCA, CCC, CRC, GBC, GC, HCC, HNSCC, MEL, NHL, NSCLCadeno, NSCLCother, NSCLCsquam, OC, OSCAR, PACA, PRCA, RCC, SCLC, UBC, UEC
16 (WIGDKSFEY; listed as Homo sapiens) [compound 16] | AML | BRCA, CRC, GBC, GBM, GC, HCC, MEL, NSCLCadeno, NSCLCsquam, OSCAR, PACA, PRCA, RCC
223 (RRMYPPPLI; listed as Homo sapiens) [compound 223] | CLL | HCC, MEL, NHL, NSCLCadeno, NSCLCother, NSCLCsquam, OC, SCLC, UEC
168 (QEIQSLLTNW; listed as Homo sapiens) [compound 168] | CLL | CCC, CRC, GBM, HCC, HNSCC, MEL, NHL, NSCLCadeno, NSCLCsquam, OSCAR, PACA, RCC, SCLC, UEC
226 (YLNRHLHTW; listed as Homo sapiens) [compound 226] | CLL | NHL, NSCLCsquam
142 (TEIFKEHNF; listed as Homo sapiens) [compound 142] | AML | 
48 (RIKPPGPTAVPK; listed as Homo sapiens) [compound 48] | AML | BRCA, MEL
256 (SPYKKLKEAL; listed as Homo sapiens) [compound 256] | CLL | BRCA, MEL, NHL, NSCLCadeno, NSCLCother, NSCLCsquam, OSCAR, PRCA, RCC, SCLC, UBC
92 (KAKKPAGAA; listed as Homo sapiens) [compound 92] | CLL | 
229 (SPLGSLARSSL; listed as Homo sapiens) [compound 229] | CLL | GBC, NHL, OC, OSCAR
200 (VMLQINPKL; listed as Homo sapiens) [compound 200] | CLL | BRCA, GBC, GBM, HCC, HNSCC, MEL, NHL, NSCLCadeno, NSCLCother, NSCLCsquam, OC, OSCAR, RCC, SCLC, UEC
38 (KARKSAGAAK; listed as Homo sapiens) [compound 38] | CLL | 

Substance | Peptide Presentation on cancer entities | Peptide Presentation on tumor types
123 (EENPGKFLF; listed as Homo sapiens) [compound 123] | CLL | HNSCC, MEL, NHL, NSCLCadeno, NSCLCsquam, OSCAR, PRCA
29 (RIYDEILQSK; listed as Homo sapiens) [compound 29] | AML | RCC
155 (NEFPVIVRL; listed as Homo sapiens) [compound 155] | CLL | BRCA, CRC, GBC, GBM, GC, HNSCC, MEL, NHL, NSCLCadeno, NSCLCother, NSCLCsquam, OC, OSCAR, PACA, PRCA, RCC, SCLC, UBC, UEC
157 (VEIAEAIQL; listed as Homo sapiens) [compound 157] | CLL | CCC, CRC, HNSCC, NSCLCadeno, NSCLCother, NSCLCsquam, OC
165 (VELDLQRSV; listed as Homo sapiens) [compound 165] | AML | 
96 (KPKKAPKSPA; listed as Homo sapiens) [compound 96] | CLL | 
136 (AEYKGRVTL; listed as Homo sapiens) [compound 136] | CLL | NHL, OSCAR
118 (FEKEKKESL; listed as Homo sapiens) [compound 118] | CLL | 
12 (ATDIVDSQY; listed as Homo sapiens) [compound 12] | CLL | 
270 (AESEDLAVHL; listed as Homo sapiens) [compound 270] | CLL | MEL, NSCLCsquam
20 (FSLEDLVRI; listed as Homo sapiens) [compound 20] | CLL | NHL
170 (SENEQRRMF; listed as Homo sapiens) [compound 170] | CLL | 
105 (NPLTKLLAI; listed as Homo sapiens) [compound 105] | AML | CCC, MEL, NHL, NSCLCadeno, NSCLCother, NSCLCsquam, OC
215 (KATGAATPK; listed as Homo sapiens) [compound 215] | CLL | NSCLCsquam
202 (MVALPMVLV; listed as Homo sapiens) [compound 202] | CLL | 
266 (VDASIFKAW; listed as Homo sapiens) [compound 266] | CLL | BRCA, CRC, GBC, HCC, HNSCC, MEL, NHL, NSCLCadeno, NSCLCsquam, OC, OSCAR, PACA, RCC, SCLC, UBC, UEC
246 (YPGWHSTTI; listed as Homo sapiens) [compound 246] | AML | CRC, HNSCC, NHL
104 (RPMTPTQIGPSL; listed as Homo sapiens) [compound 104] | CLL | NHL
175 (HEIDGKALFL; listed as Homo sapiens) [compound 175] | AML | 
